Source: the supplement of paper PMC10849652
Some of the results follow.

The chains behind the UniProt entries cited, without tags or fusion partners. Where a name states a change or a piece, a line headed by the entry shows the natural chain unless it says otherwise.
UniProt Q7L8J4: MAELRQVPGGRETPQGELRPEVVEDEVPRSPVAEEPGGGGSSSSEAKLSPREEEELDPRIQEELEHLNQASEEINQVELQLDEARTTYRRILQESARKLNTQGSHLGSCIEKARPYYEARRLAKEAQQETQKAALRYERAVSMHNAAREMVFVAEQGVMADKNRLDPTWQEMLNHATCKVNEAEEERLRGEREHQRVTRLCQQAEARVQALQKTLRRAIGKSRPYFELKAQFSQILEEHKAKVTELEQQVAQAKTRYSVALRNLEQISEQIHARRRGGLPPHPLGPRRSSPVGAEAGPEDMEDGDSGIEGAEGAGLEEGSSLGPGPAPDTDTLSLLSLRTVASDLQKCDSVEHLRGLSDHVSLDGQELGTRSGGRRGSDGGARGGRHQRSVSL
UniProt Q96FS4: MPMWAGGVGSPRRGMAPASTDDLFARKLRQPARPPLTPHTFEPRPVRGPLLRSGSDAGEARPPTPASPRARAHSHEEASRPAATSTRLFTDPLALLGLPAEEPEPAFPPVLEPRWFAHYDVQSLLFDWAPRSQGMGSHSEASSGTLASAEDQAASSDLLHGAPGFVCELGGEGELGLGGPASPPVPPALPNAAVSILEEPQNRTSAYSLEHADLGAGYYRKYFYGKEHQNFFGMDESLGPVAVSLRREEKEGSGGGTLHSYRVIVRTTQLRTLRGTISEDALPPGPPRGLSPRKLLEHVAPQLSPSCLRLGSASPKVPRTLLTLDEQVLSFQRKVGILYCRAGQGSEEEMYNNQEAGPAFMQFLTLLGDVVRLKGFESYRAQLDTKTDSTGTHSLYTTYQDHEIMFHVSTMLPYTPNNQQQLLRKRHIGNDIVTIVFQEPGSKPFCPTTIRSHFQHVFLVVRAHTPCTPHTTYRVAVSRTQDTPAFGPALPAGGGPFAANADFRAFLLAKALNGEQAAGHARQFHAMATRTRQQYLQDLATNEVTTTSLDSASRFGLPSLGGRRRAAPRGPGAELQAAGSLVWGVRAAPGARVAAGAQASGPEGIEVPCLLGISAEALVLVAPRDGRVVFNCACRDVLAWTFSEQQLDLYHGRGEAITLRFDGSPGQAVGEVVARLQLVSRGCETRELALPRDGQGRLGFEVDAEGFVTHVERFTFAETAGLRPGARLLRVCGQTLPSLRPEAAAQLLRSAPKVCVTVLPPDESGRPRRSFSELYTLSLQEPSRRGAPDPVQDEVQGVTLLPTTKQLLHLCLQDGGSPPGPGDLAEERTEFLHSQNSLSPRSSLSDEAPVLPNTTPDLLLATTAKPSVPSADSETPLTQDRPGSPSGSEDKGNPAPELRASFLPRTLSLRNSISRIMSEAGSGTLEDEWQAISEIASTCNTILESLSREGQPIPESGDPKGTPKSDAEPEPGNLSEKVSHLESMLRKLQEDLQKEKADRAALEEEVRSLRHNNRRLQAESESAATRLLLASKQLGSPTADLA
UniProt Q9BQE4, whole entry, looked up: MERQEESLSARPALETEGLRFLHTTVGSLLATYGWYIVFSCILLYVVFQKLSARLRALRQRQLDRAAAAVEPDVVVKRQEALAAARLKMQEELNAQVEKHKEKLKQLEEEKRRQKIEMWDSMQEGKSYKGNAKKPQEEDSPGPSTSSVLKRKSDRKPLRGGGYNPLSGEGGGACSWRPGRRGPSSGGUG
UniProt O60239: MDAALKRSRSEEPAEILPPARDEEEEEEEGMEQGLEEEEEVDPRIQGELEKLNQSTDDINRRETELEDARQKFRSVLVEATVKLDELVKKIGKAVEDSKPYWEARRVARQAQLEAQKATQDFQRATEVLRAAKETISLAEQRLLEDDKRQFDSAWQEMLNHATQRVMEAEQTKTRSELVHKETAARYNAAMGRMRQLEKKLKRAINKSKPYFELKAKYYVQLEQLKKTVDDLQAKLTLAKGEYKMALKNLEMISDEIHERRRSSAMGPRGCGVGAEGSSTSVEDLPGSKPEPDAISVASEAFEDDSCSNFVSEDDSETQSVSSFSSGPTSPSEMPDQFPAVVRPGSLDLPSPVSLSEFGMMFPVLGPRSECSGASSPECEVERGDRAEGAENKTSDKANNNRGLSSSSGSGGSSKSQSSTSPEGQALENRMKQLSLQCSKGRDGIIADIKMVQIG
UniProt Q16181: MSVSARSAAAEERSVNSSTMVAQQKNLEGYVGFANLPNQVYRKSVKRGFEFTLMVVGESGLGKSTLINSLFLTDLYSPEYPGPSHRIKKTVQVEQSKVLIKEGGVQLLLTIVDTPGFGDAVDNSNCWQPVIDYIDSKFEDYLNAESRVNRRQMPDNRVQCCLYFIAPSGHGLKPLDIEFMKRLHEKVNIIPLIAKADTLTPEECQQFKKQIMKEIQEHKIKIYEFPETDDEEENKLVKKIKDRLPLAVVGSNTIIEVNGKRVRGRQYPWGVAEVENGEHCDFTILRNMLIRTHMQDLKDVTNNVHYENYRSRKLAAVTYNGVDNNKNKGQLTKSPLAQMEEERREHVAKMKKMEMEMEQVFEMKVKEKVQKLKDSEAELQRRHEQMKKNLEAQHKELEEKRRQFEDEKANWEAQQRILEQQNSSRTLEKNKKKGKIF
UniProt Q15428: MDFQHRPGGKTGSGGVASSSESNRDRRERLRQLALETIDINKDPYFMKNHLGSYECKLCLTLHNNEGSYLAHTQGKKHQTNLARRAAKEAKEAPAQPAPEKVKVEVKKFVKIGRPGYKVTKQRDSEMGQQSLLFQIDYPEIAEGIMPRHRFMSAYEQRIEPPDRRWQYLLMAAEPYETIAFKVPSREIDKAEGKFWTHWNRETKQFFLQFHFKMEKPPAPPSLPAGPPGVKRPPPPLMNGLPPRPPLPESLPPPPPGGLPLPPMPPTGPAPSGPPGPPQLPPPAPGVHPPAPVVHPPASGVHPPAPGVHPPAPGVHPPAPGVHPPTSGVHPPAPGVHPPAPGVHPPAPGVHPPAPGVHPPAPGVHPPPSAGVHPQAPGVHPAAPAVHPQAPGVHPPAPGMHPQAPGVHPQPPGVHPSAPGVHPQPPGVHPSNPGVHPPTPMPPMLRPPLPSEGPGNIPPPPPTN
UniProt O43765: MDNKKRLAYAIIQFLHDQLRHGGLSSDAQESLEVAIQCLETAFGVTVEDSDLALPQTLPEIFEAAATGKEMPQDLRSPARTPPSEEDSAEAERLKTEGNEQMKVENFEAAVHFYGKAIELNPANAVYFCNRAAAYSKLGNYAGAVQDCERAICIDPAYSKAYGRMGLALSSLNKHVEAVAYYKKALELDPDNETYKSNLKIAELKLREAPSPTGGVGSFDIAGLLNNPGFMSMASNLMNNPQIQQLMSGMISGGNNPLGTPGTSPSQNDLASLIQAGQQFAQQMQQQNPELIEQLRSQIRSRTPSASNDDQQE
UniProt Q9Y3L3: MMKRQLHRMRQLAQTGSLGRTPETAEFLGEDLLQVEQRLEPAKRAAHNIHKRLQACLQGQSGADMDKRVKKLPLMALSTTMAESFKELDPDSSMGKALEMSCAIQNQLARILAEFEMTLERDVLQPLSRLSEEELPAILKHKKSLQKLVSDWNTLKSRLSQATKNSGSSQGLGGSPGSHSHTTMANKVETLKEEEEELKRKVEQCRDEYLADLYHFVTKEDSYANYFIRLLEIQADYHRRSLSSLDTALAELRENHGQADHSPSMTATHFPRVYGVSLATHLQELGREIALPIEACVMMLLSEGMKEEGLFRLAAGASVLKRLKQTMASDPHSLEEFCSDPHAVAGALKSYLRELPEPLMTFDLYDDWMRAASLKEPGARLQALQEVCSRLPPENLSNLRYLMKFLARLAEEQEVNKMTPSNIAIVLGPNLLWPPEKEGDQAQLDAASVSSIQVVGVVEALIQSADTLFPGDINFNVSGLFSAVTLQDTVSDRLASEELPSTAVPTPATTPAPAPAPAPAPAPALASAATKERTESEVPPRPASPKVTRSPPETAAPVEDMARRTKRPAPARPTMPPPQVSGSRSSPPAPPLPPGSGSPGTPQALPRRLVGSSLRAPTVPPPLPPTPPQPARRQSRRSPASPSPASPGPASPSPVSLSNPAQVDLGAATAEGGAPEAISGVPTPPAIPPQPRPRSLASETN
UniProt Q8N6T7, whole entry, looked up: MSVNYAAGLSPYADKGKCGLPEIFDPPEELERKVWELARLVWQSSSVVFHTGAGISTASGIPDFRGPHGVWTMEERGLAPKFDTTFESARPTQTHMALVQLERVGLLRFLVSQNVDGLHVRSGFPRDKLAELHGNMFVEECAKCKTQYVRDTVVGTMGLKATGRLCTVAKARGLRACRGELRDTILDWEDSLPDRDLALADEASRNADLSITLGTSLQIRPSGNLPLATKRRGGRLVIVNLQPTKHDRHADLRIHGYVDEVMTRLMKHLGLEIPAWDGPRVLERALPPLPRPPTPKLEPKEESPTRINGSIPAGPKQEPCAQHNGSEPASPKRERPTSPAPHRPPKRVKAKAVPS
UniProt Q99611, whole entry, looked up: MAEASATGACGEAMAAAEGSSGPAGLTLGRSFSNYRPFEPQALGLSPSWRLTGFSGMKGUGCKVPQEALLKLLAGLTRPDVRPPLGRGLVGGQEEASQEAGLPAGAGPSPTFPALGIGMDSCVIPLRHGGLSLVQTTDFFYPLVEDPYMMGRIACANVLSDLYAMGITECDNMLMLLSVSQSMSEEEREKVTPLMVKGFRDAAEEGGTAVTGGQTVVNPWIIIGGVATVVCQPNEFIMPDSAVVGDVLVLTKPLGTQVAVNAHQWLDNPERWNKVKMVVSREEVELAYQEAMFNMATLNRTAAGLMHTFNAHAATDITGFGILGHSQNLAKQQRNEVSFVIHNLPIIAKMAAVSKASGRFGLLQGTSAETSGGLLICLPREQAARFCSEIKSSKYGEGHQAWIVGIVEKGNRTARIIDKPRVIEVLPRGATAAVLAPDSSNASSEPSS
UniProt O43236: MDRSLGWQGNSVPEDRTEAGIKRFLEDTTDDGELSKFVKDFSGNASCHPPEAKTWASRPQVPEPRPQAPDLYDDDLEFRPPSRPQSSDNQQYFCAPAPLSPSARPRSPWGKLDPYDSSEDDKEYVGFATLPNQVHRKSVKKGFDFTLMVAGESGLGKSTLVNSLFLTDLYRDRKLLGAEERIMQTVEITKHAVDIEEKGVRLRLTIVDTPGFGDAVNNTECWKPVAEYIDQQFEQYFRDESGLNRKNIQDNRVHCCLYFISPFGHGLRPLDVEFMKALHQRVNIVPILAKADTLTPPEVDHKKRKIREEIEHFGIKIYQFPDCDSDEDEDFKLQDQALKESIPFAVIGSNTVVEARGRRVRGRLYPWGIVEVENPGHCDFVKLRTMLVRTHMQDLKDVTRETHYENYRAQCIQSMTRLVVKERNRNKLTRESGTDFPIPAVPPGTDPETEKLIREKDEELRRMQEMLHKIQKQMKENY
UniProt P61619, whole entry, looked up: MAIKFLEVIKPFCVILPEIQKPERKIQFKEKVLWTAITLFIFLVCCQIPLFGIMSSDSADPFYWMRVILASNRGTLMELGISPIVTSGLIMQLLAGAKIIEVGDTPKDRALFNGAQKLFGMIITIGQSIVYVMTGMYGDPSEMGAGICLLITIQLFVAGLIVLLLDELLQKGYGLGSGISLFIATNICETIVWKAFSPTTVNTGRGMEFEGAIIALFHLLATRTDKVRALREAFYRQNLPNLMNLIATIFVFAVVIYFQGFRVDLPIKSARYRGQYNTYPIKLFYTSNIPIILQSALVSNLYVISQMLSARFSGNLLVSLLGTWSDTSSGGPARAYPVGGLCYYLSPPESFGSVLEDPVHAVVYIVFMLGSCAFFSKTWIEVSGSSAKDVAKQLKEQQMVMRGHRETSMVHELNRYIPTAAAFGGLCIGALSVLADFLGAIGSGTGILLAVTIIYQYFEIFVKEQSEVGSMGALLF
UniProt Q15459: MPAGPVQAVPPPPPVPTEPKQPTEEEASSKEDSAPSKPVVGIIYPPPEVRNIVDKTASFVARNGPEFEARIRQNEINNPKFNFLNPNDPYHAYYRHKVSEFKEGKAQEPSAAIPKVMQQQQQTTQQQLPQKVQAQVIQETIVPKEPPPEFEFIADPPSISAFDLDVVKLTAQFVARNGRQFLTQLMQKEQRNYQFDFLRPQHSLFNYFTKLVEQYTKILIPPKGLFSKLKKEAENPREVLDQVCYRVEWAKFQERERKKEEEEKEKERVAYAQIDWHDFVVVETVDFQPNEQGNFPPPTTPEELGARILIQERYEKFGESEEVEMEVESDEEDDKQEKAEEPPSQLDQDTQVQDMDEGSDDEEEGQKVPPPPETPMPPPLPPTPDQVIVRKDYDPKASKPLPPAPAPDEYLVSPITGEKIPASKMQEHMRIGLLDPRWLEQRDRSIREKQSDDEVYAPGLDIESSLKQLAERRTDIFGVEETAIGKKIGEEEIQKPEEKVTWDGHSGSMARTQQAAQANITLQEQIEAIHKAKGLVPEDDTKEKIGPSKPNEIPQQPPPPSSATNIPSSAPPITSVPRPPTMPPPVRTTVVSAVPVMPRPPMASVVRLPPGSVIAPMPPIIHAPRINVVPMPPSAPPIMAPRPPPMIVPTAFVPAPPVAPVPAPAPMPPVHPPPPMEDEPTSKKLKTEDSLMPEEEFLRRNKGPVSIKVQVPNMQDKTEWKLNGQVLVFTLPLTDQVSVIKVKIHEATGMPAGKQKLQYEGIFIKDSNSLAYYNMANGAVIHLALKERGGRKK

What was measured:
Test in all cases: log2 fold change, soluble protein after heating vs DMSO (PISA); higher = thermal stabilisation; K562 cells, 10 uM, 30 min; active = over 0.2 and 3.5 SD of the protein, either way, in both replicates (recomputed)
[1] = compound: CS(=O)(=O)c1ccc(-c2cnc(N)c(C(=O)Nc3ccccc3)n2)cc1
How it was run: (§1)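 K562 cells at 2×10^6 cells/mL were treated with 10 μM compound for 30 min. Aliquots were heated for 3 min across 48°C-58°C, pooled, and extracted in PBS with 0.5% NP-40 at 4°C; soluble protein was the supernatant after 21,000xg for 90 min. Soluble protein was quantified by TMTpro 16plex LC-MS/MS with channel sums equalised, and reported as log2 fold change in thermal stability against DMSO controls, with values from duplicates.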

crizotinib = compound: C[C@@H](Oc1cc(-c2cnn(C3CCNCC3)c2)cnc1N)c1c(Cl)ccc(F)c1Cl [crizotinib]
How it was run: as §1

[2] = compound: C[C@@H]1COCCN1C2=NC(=NC(=C2)C3(CC3)S(=O)(=O)C)C4=C5C=CNC5=CC=C4
How it was run: as §1

[3] = compound: C[C@H](C1=CC=C(C=C1)C(=O)NC2=C3C=CNC3=NC=C2)N
How it was run: as §1

duvelisib = compound: C[C@H](Nc1ncnc2nc[nH]c12)c1cc2cccc(Cl)c2c(=O)n1-c1ccccc1 [duvelisib]
How it was run: as §1

gandotinib = compound: Cc1cc(Nc2cc(CN3CCOCC3)c3nc(C)c(Cc4ccc(Cl)cc4F)n3n2)n[nH]1 [gandotinib]
How it was run: as §1

tozasertib = compound: Cc1cc(Nc2cc(N3CCN(C)CC3)nc(Sc3ccc(NC(=O)C4CC4)cc3)n2)n[nH]1 [tozasertib]
How it was run: as §1

[4] = compound: Cc1cc(SCc2sc(-c3ccc(C(F)(F)F)cc3)nc2C)ccc1OCC(=O)O
How it was run: as §1

doramapimod = compound: Cc1ccc(-n2nc(C(C)(C)C)cc2NC(=O)Nc2ccc(OCCN3CCOCC3)c3ccccc23)cc1 [doramapimod]
How it was run: as §1

ispinesib = compound: Cc1ccc(C(=O)N(CCCN)[C@@H](c2nc3cc(Cl)ccc3c(=O)n2Cc2ccccc2)C(C)C)cc1 [ispinesib]
How it was run: as §1

bafetinib = compound: Cc1ccc(NC(=O)c2ccc(CN3CC[C@H](N(C)C)C3)c(C(F)(F)F)c2)cc1Nc1nccc(-c2cncnc2)n1 [bafetinib]
How it was run: as §1

[5] = compound: Cc1cccc(CC(=O)N2CCc3c2ccc(-c2cn(C)c4ncnc(N)c24)c3F)n1
How it was run: as §1

nilotinib = compound: Cc1cn(-c2cc(NC(=O)c3ccc(C)c(Nc4nccc(-c5cccnc5)n4)c3)cc(C(F)(F)F)c2)cn1 [nilotinib]
How it was run: as §1

[6] = compound: Cc1nc(Nc2n[nH]c3c2CN(C(=O)N[C@H](CN(C)C)c2ccccc2)C3(C)C)c2sccc2n1
How it was run: as §1

dasatinib = compound: Cc1nc(Nc2ncc(C(=O)Nc3c(C)cccc3Cl)s2)cc(N2CCN(CCO)CC2)n1 [dasatinib]
How it was run: as §1

[7] = compound: Cc1ncc(-c2ccnc(Nc3ccc(S(C)(=O)=O)cc3)n2)n1C(C)C
How it was run: as §1

[8] = compound: Cn1cc(-c2ccc3c(c2)CCN3C(=O)Cc2cccc(C(F)(F)F)c2)c2c(N)ncnc21
How it was run: as §1

[9] = compound: Cn1cc(-c2ccc3nnc(C(F)(F)c4ccc5ncccc5c4)n3n2)cn1
How it was run: as §1

tipifarnib = compound: Cn1cncc1[C@@](N)(c1ccc(Cl)cc1)c1ccc2c(c1)c(-c1cccc(Cl)c1)cc(=O)n2C [tipifarnib]
How it was run: as §1

mubritinib = compound: FC(F)(F)c1ccc(/C=C/c2nc(COc3ccc(CCCCn4ccnn4)cc3)co2)cc1 [mubritinib]
How it was run: as §1

Measured: log2 fold change

SH3BP5L (UniProt Q7L8J4)
inactive: [1] 0.124 | crizotinib 0.059 | [2] -0.097 | [3] 0.003 | duvelisib -0.033 | gandotinib -0.091 | tozasertib 0.065 | [4] 0.015 | doramapimod 0.049 | ispinesib -0.065 | bafetinib -0.01 | [5] -0.058 | nilotinib 0.036 | [6] -0.033 | dasatinib 0.125 | [7] 0.049 | [8] -0.037 | [9] -0.117 | tipifarnib -0.104 | mubritinib 0.054

SIPA1 (UniProt Q96FS4)
inactive: [1] 0.001 | crizotinib -0.001 | [2] 0.012 | [3] 0.01 | duvelisib -0.014 | gandotinib 0.038 | tozasertib -0.02 | [4] 0.045 | doramapimod -0.028 | ispinesib -0.044 | bafetinib -0.013 | [5] 0.041 | nilotinib -0.112 | [6] -0.005 | dasatinib -0.013 | [7] -0.104 | [8] 0.004 | [9] -0.022 | tipifarnib -0.043 | mubritinib 0.019

SERGEF (UniProt Q9UGK8)
inactive: [1] 0.077 | crizotinib -0.111 | [2] 0.053 | [3] 0.013 | duvelisib 0.204 | gandotinib 0.04 | tozasertib -0.033 | [4] 0.058 | doramapimod -0.01 | ispinesib -0.156 | bafetinib 0.027 | [5] 0.073 | nilotinib -0.037 | [6] 0.028 | dasatinib -0.035 | [7] -0.049 | [8] 0.111 | [9] 0.058 | tipifarnib -0.013 | mubritinib 0.062

SELENOS (UniProt Q9BQE4)
inactive: [1] -0.033 | crizotinib 0.006 | [2] -0.178 | [3] -0.063 | duvelisib 0.037 | gandotinib -0.004 | tozasertib -0.032 | [4] 0.016 | doramapimod 0.005 | ispinesib 0.002 | bafetinib -0.128 | [5] -0.024 | nilotinib 0.04 | [6] -0.004 | dasatinib 0.026 | [7] 0.078 | [8] -0.042 | [9] 0.012 | tipifarnib 0.043 | mubritinib 0.015

Two records drawn at random from those above, as already listed:
SH3BP5L (UniProt Q7L8J4)
inactive: [1] 0.124 | crizotinib 0.059 | [2] -0.097 | [3] 0.003 | duvelisib -0.033 | gandotinib -0.091 | tozasertib 0.065 | [4] 0.015 | doramapimod 0.049 | ispinesib -0.065 | bafetinib -0.01 | [5] -0.058 | nilotinib 0.036 | [6] -0.033 | dasatinib 0.125 | [7] 0.049 | [8] -0.037 | [9] -0.117 | tipifarnib -0.104 | mubritinib 0.054

SIPA1 (UniProt Q96FS4)
inactive: [1] 0.001 | crizotinib -0.001 | [2] 0.012 | [3] 0.01 | duvelisib -0.014 | gandotinib 0.038 | tozasertib -0.02 | [4] 0.045 | doramapimod -0.028 | ispinesib -0.044 | bafetinib -0.013 | [5] 0.041 | nilotinib -0.112 | [6] -0.005 | dasatinib -0.013 | [7] -0.104 | [8] 0.004 | [9] -0.022 | tipifarnib -0.043 | mubritinib 0.019

Next results:

SH3BP5 (UniProt O60239)
inactive: [1] 0.08 | crizotinib 0.082 | [2] -0.019 | [3] 0.065 | duvelisib 0.053 | gandotinib 0.111 | tozasertib -0.042 | [4] -0.045 | doramapimod -0.038 | ispinesib -0.034 | bafetinib -0.053 | [5] 0.013 | nilotinib 0.004 | [6] -0.113 | dasatinib -0.132 | [7] 0.017 | [8] -0.005 | [9] -0.008 | tipifarnib -0.086 | mubritinib -0.001

SEPTIN7 (UniProt Q16181)
inactive: [1] 0.028 | crizotinib 0.007 | [2] 0.052 | [3] -0.135 | duvelisib -0.01 | gandotinib -0.099 | tozasertib -0.033 | [4] 0.034 | doramapimod -0.026 | ispinesib 0.128 | bafetinib 0.028 | [5] -0.014 | nilotinib -0.008 | [6] -0.01 | dasatinib -0.05 | [7] -0.016 | [8] 0.076 | [9] -0.035 | tipifarnib -0.063 | mubritinib 0.041

SF3A2 (UniProt Q15428)
inactive: [1] 0.023 | crizotinib 0.064 | [2] -0.028 | [3] 0.081 | duvelisib 0.026 | gandotinib -0.1 | tozasertib 0.036 | [4] 0.031 | doramapimod 0.013 | ispinesib 0.105 | bafetinib 0.023 | [5] -0.016 | nilotinib 0.007 | [6] -0.047 | dasatinib 0.012 | [7] 0.023 | [8] -0.074 | [9] -0.117 | tipifarnib -0.044 | mubritinib 0.04

SGTA (UniProt O43765)
inactive: [1] 0.012 | crizotinib 0.031 | [2] 0.041 | [3] -0.056 | duvelisib 0.01 | gandotinib -0.018 | tozasertib 0.037 | [4] -0.003 | doramapimod -0.034 | ispinesib 0.029 | bafetinib -0.046 | [5] 0.008 | nilotinib -0.037 | [6] -0.016 | dasatinib -0.1 | [7] 0.031 | [8] 0.013 | [9] -0.014 | tipifarnib -0.048 | mubritinib 0.029

SH3BP1 (UniProt Q9Y3L3)
inactive: [1] 0.044 | crizotinib -0.04 | [2] 0.017 | [3] -0.067 | duvelisib 0.037 | gandotinib 0.006 | tozasertib -0.02 | [4] -0.004 | doramapimod -0.007 | ispinesib 0.022 | bafetinib -0.004 | [5] -0.015 | nilotinib 0.024 | [6] -0.049 | dasatinib -0.06 | [7] -0.007 | [8] 0.027 | [9] -0.024 | tipifarnib -0.028 | mubritinib 0.088

SIRT6 (UniProt Q8N6T7)
inactive: [1] 0.01 | crizotinib 0.156 | [2] 0.19 | [3] 0.002 | duvelisib 0.092 | gandotinib 0.071 | tozasertib -0.063 | [4] -0.056 | doramapimod -0.075 | ispinesib -0.111 | bafetinib 0.139 | [5] -0.043 | nilotinib -0.143 | [6] 0.06 | dasatinib -0.085 | [7] -0.022 | [8] 0.086 | [9] -0.076 | tipifarnib -0.014 | mubritinib 0.001

SEPHS2 (UniProt Q99611)
inactive: [1] 0.005 | crizotinib -0.034 | [2] -0.024 | [3] -0.07 | duvelisib -0.03 | gandotinib -0.123 | tozasertib -0.003 | [4] -0.015 | doramapimod -0.048 | ispinesib 0.139 | bafetinib 0.062 | [5] 0.092 | nilotinib 0.026 | [6] -0.006 | dasatinib -0.007 | [7] -0.017 | [8] 0.054 | [9] -0.027 | tipifarnib -0.122 | mubritinib -0.006

SFXN1 (UniProt Q9H9B4)
inactive: [1] 0 | crizotinib -0.01 | [2] 0.139 | [3] -0.069 | duvelisib 0.049 | gandotinib -0.094 | tozasertib -0.014 | [4] -0.023 | doramapimod -0.035 | ispinesib -0.014 | bafetinib -0.082 | [5] 0.061 | nilotinib -0.034 | [6] 0.001 | dasatinib 0 | [7] -0.027 | [8] 0.111 | [9] 0.028 | tipifarnib -0.053 | mubritinib 0.028

SEL1L (UniProt Q9UBV2)
inactive: [1] -0.03 | crizotinib 0.016 | [2] 0.043 | [3] 0.031 | duvelisib -0.006 | gandotinib 0.068 | tozasertib -0.01 | [4] -0.002 | doramapimod 0.031 | ispinesib 0.022 | bafetinib 0.036 | [5] 0.001 | nilotinib 0.018 | [6] -0.006 | dasatinib 0.007 | [7] -0.015 | [8] -0.029 | [9] 0.02 | tipifarnib -0.008 | mubritinib -0.013

SEPTIN4 isoform 4 (UniProt O43236)
inactive: [1] -0.074 | crizotinib -0.051 | [2] 0.129 | [3] -0.243 | duvelisib 0.019 | gandotinib 0.014 | tozasertib -0.035 | [4] 0.021 | doramapimod 0.282 | ispinesib 0.256 | bafetinib 0.095 | [5] 0.052 | nilotinib 0.007 | [6] -0.04 | dasatinib 0.008 | [7] 0.031 | [8] 0.036 | [9] -0.044 | tipifarnib -0.055 | mubritinib 0.051

SEC61A1 (UniProt P61619)
inactive: [1] 0.025 | crizotinib 0.073 | [2] 0 | [3] -0.078 | duvelisib 0.081 | gandotinib -0.011 | tozasertib 0.002 | [4] -0.007 | doramapimod -0.021 | ispinesib 0.016 | bafetinib 0.002 | [5] -0.012 | nilotinib -0.022 | [6] 0.054 | dasatinib -0.046 | [7] -0.054 | [8] 0.041 | [9] -0.034 | tipifarnib -0.037 | mubritinib -0.013

SF3A1 (UniProt Q15459)
inactive: [1] 0 | crizotinib 0.067 | [2] 0.024 | [3] 0.022 | duvelisib 0.006 | gandotinib 0.096 | tozasertib 0.091 | [4] 0.038 | doramapimod -0.008 | ispinesib 0.099 | bafetinib 0.003 | [5] 0.021 | nilotinib 0.002 | [6] -0.087 | dasatinib -0.002 | [7] 0.011 | [8] -0.055 | [9] 0.006 | tipifarnib 0.025 | mubritinib 0.045
